The results in this text go back to PubChem BioAssay AID1347422 (Sanford-Burnham Center for Chemical Genomics, 2020).

Sequences of proteins named here, by UniProt entry; tags and fusion partners are left off. A change or cut given only in a name is not applied to a line headed by its entry.
UniProt O00391: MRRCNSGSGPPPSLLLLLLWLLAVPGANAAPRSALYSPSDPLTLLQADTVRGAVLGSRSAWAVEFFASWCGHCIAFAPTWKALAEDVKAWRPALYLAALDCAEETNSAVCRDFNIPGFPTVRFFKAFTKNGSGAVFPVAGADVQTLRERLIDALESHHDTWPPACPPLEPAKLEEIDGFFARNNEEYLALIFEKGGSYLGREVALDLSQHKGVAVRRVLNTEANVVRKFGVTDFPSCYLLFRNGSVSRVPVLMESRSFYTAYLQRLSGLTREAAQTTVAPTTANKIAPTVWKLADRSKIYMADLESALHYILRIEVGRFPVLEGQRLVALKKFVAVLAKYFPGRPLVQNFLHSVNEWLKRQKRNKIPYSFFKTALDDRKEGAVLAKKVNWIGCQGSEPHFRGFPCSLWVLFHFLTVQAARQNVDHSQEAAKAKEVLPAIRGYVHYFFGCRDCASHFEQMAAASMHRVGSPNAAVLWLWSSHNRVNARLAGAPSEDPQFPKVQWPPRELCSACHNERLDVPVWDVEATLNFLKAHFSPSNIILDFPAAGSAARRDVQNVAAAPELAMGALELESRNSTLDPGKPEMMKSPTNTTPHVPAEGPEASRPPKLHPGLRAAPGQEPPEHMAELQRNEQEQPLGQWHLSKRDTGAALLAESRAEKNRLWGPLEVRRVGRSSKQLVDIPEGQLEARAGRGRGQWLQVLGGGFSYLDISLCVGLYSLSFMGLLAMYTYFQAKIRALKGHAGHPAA

The full ranking holds about 1,000 compounds; the median of “thermal shift dTm” is about 0.19, and the highest 2% start at about 1.7. This is one part of the list. Active and inactive are the calls of the source.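 How the source made its calls: active means mean rise in melting temperature of at least 1 degC over same-plate control wells; inactive means below that, where a call was filed.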

For the assay, the target named is Sulfhydryl oxidase 1 (Homo sapiens) (UniProt O00391). The experiment in a line: ligand-induced melting shift of human QSOX1 – biophysical, protein thermal shift, single concentration, QSOX1 inhibitor project, confirmation (AID 1347422).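 Further: dTm is compound Tm minus mean Tm of DMSO-only wells on that plate.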 To be noted: recombinant hQSOX1 thermal shift, Sypro Orange, at 25 µM, stronger effect = higher value.
As to `CCOc1ccccc1-c1nc2ccc(Br)cc2c(=O)o1`, the thermal shift dTm turned out to be 0.44 °C. Take `O=C(Nc1nccs1)c1cccc(NC(=O)c2cccs2)c1`: the thermal shift dTm was active: 1.45 °C.

Regarding `Nc1cccc(Oc2ccc(C(=O)O)c(C(=O)O)c2)c1`, the thermal shift dTm amounted to 0.84 °C. Take `O=S(=O)(c1cccs1)N1CCC(CO)(Cc2ccc(Cl)cc2)CC1`: the thermal shift dTm stood at 0.18 °C. `CS(=O)(=O)Nc1ccc(C2=NN(C(=O)c3cccs3)C(c3cccs3)C2)cc1` (stereo not drawn): the thermal shift dTm amounted to 0.61 °C. Turning to `Cc1ccc(CN2CCN(/N=C\c3ccc(O)cc3)CC2)cc1`, the thermal shift dTm stood at 0.1 °C. Regarding `O=C(Nc1ccc(Cl)cc1)Nc1ccccc1OC(F)F`, the thermal shift dTm was found to be 0.25 °C. Consider `CCCOC(=O)c1c(NC(=O)C2CC=CCC2C(=O)O)sc(C)c1-c1ccc(F)cc1` (stereo not drawn), for which the thermal shift dTm was 0.77 °C. For `CN1C(=O)NC(NC(=O)CCc2ccccc2)(C(F)(F)F)C1=O` (stereo not drawn), the thermal shift dTm is 0.16 °C.

As for `COc1cccc(C(=O)NCCc2c[nH]c3ccc(C)cc23)c1`, the thermal shift dTm worked out at 0.07 °C. In the case of `Brc1ccc(Nc2nc(NCc3ccco3)c3ccccc3n2)cc1`, the thermal shift dTm is inactive: -0.54 °C.

With `O=C(Nc1ccccc1)N(Cc1ccc(Cl)cc1)Cc1ccco1`, the thermal shift dTm is 0.16 °C. For the compound `COc1ccccc1NC(=O)CSCc1cccc2ccccc12`, the thermal shift dTm was determined as 0.02 °C.

Regarding `O=C(NCCOc1ccccc1Cl)c1cccc(I)c1`, the thermal shift dTm was found to be 0.86 °C. In the case of `c1csc(-c2nc(-c3cccs3)c(-c3cccs3)[nH]2)c1`, the thermal shift dTm worked out at 0.06 °C. For the compound `COc1ccc(N2C(=O)N(c3ccc(F)cc3)C3CS(=O)(=O)CC32)cc1` (stereo not drawn), the thermal shift dTm amounted to 0.02 °C. Turning to `O=C(COc1ccc(Cl)cc1Cl)NCCSCc1ccccc1Cl`, the thermal shift dTm amounted to 0.1 °C.

As for `CCC(Oc1ccccc1)c1nnc(NC(=O)Cc2ccccc2)s1` (stereo not drawn), the thermal shift dTm amounted to 0.4 °C. Consider `Cc1cc(OCC(=O)Nc2ccc(O)cc2)cc(C)c1Cl`, for which the thermal shift dTm is 0.45 °C. On to `CSc1ncc(Cl)c(C(=O)Nc2nnc(SCc3ccccc3)s2)n1`, for which the thermal shift dTm was found to be 0.28 °C. On to `O=C(COc1ccc(Cl)cc1)Nc1ccc(C(=O)NCC2CCCO2)cc1` (stereo not drawn), for which the thermal shift dTm is inactive: -0.05 °C.

As for `O=S(=O)(c1cccs1)N1CCC(CO)(Cc2ccccc2C(F)(F)F)CC1`, the thermal shift dTm is 0.43 °C. Next, `COc1ccc2[nH]cc(CCNC(=O)c3ccc(OC(C)=O)cc3)c2c1`: 0.81 °C. With `COc1cc(/C=N/O)cc(Cl)c1OCc1ccccc1F`, the thermal shift dTm came to 0.06 °C. On to `COc1ccc(CC2(CO)CCN(S(=O)(=O)c3ccc(Cl)s3)CC2)cc1`, for which the thermal shift dTm came out at 0.61 °C. On to `O=C(c1ccc(NC(=O)c2ccccc2F)cc1)c1cccs1`, for which the thermal shift dTm worked out at 0.94 °C. For the compound `NS(=O)(=O)c1ccc(NC(=O)c2ccc(Br)s2)cc1`, the thermal shift dTm was 0.74 °C. As for `Cc1ccc(Nc2nc(C3(C)CC4(CC(C)OC4=O)C(=O)O3)cs2)cc1` (stereo not drawn), the thermal shift dTm came out at 0.11 °C. Next, `CC(=O)Nc1ccc(NC(=O)CCc2nc(-c3ccccc3)no2)cc1`: 0.14 °C. On to `O=C(Nc1nc(-c2ccccc2Cl)cs1)Oc1ccccc1`, for which the thermal shift dTm came out at 0.16 °C. In the case of `COc1cc(NC(=O)Nc2cccc(C)c2)cc(OC)c1`, the thermal shift dTm was 0.52 °C. Consider `CCOc1ccc(NC(=O)Nc2cc(OC)c(OC)c(OC)c2)cc1`, for which the thermal shift dTm was active: 1.64 °C. With `Cn1cc(C(=O)CSc2nnc(-c3ccccc3)o2)c2ccccc21`, the thermal shift dTm came to 0.23 °C. On to `NC(=O)c1ccnc(-c2ccc(-c3ccn[nH]3)cc2)c1`, for which the thermal shift dTm was inactive: 0 °C. Next, `CCOC(=O)c1cc(C)sc1NC(=O)CC1Sc2ccccc2NC1=O` (stereo not drawn): 0.02 °C.

Take `O=C1CN(Cc2cn(C3CCN(C(=O)Nc4ccc(F)cc4)CC3)nn2)CCN1`: the thermal shift dTm came to 0.14 °C.

Turning to `C=CCc1c(C)nc2c(-c3ccccc3)cnn2c1NCc1cccnc1`, the thermal shift dTm was inactive: -0.08 °C. Next, `COc1ccc(-c2noc(CSc3nc(-c4ccccc4)cc(=O)[nH]3)n2)cc1`: 0.07 °C; `CCS(=O)(=O)c1ccc(O)c(Nc2cc(-c3ccccc3)ncn2)c1`: inactive: -0.05 °C; `CN(C)c1ccc(-c2cc(C(N)=O)ccn2)cc1`: 0.93 °C. As to `CCOc1ccc(N/C(N)=N/c2nc(-c3cccs3)cc(C(F)(F)F)n2)cc1`, the thermal shift dTm was inactive: -0.16 °C. Next, `Oc1ccc(Br)cc1-c1nc2ccc3ccccc3c2c2c1CCCC2`: 0.15 °C. For `CC(C)C(=O)Nc1cccc(NC(=O)Nc2ccccc2)c1` the value was active: 1.68 °C; for `CCOc1ccc(NC(=S)Nc2ccc(C(N)=O)cc2)cc1`, inactive: -0.03 °C. As for `COC(=O)c1ccc(Nc2nnc(-c3ccc(O)cc3)c3ccccc23)cc1`, the thermal shift dTm is 0.3 °C.

With `O=C(Nc1ccc(-n2cc(Br)cn2)cc1)c1cccnc1`, the thermal shift dTm came to 0.23 °C.

`CCC(=O)Nc1ccc(NC(=O)CCc2ccccc2Cl)cc1`: the thermal shift dTm was 0.41 °C. For the compound `COc1ccc(NC(=O)CSCc2ccccc2C)cc1Cl`, the thermal shift dTm is 0.02 °C. `Cc1ccc(-c2nn(-c3cccc(F)c3)cc2CN2CCN(CCO)CC2)o1`: the thermal shift dTm was found to be 0.09 °C. In the case of `O=C(Nc1nnc(C2CC2)s1)c1ccc(NC(=O)c2ccco2)cc1`, the thermal shift dTm was found to be 0.55 °C. For the compound `O=C(/C=C/c1ccc(F)cc1)NCCc1nc2ccccc2[nH]1`, the thermal shift dTm came to 0.44 °C. With `CC(C(=O)Nc1nc2ccccc2s1)N1CCN(c2ccccc2F)CC1` (stereo not drawn), the thermal shift dTm was determined as 0.11 °C. With `COc1ccc(-c2nnc(NC(=O)C(C)Oc3cccc(Cl)c3)s2)cc1` (stereo not drawn), the thermal shift dTm is 0.11 °C. On to `COc1ccc(NC(=O)CSc2c(-c3ccccc3)c3cc(Cl)ccc3[nH]c2=O)cc1`, for which the thermal shift dTm was found to be 0.63 °C.

`COc1ccc(C(NC(=O)Cc2ccc3c(c2)CCCC3)c2ccccc2)cc1` (stereo not drawn): the thermal shift dTm was found to be 0.21 °C. On to `O=C(Nc1ccc2c(c1)OCCO2)c1cc(Br)cs1`, for which the thermal shift dTm amounted to 0.04 °C. `Cc1c(C(=O)N2CCC[C@H]2CO)sc2ncnc(NCCc3c[nH]c4ccccc34)c12`: the thermal shift dTm was inactive: -0.04 °C. For the compound `O=C(Nc1ccccc1C(=O)O)c1cccc(S(=O)(=O)Nc2ccccc2)c1`, the thermal shift dTm was active: 1.23 °C. `O=C(Nc1ccccc1Cl)NC12CC3CC(CC(C3)C1)C2`: the thermal shift dTm was inactive: -0.13 °C. For `Cc1ccc2oc(C(=O)Nc3ccc(S(=O)(=O)Nc4nccs4)cc3)c(C)c2c1` the value was 0.75 °C; for `O=C(c1cccc(Cl)c1)C1CCCN(S(=O)(=O)c2cccs2)C1` (stereo not drawn), 0.14 °C; for `CC(C)(C)c1ccc(-c2noc(CNC(=O)C3CCCCC3)n2)cc1`, 0.11 °C. For `Cc1ccc(NS(=O)(=O)c2cccc(C(=O)Nc3ccccc3C(=O)O)c2)cc1` the value was active: 1.46 °C; for `CC(NC(=O)N1c2ccccc2Sc2ccccc21)c1ccccc1` (stereo not drawn), inactive: -0.03 °C; for `O=C(Nc1cccnc1)c1ccc(-c2cccc(-c3ccn[nH]3)c2)o1`, 0.7 °C. As to `CCOc1ccc(CN2CCNC(=O)C2CC(=O)NCc2cc(OC)cc(OC)c2)cc1` (stereo not drawn), the thermal shift dTm stood at 0.18 °C. For `Cc1cccc(Nc2nc3ccc(C)cc3n3cnnc23)c1` the value was 0.19 °C; for `O=C(Nc1ccc(F)cc1)N1CCC(n2cc(Cc3ccccc3)nn2)CC1`, 0.28 °C.
